Results published in the supplement of paper PMC12889115.
This is one part of the list. Values are raw readings; no control value is given beside them.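 First-pass screen: polymyxin B was added at a level that permeabilizes the Salmonella outer membrane while sparing the inner membrane. DMSO wells, with and without polymyxin B, defined maximum growth. Because plates differed from one another, each plate's data were ranked separately and the compounds with the lowest OD600 were carried forward as hits.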

Test system: Salmonella enterica serovar Typhimurium SL1344
Assay: bacterial growth OD600 after 18 h with compound and polymyxin B; higher = more bacterial growth (less inhibition)
Conditions: 50 µM, Mueller-Hinton broth

SMILES | bacterial growth OD600 (polymyxin B 0.75 µg/mL) | bacterial growth OD600 (polymyxin B 1 µg/mL)
C[C@@H]1CN(C(=O)c2nc3sccn3c2CNC2(c3ccccc3)CC2)C[C@H](C)O1 | 0.773 | –
O=C(Cc1ccccn1)N1CCC(C2CCN(c3ncccn3)CC2)C1 (stereo unspecified) | 0.183 | –
COc1ccc(C(=O)N2CCCC(N3CCN(c4ccc(F)cc4)CC3)C2)c(OC)c1 (stereo unspecified) | – | 0.93
Cc1ccsc1C(=O)N1CCCC(C(=O)c2cccc(OC(C)C)c2)C1 (stereo unspecified) | – | 0.66
O=C(C1=CCCC1)N1CCCC(c2[nH]ncc2-c2ccc(F)c(F)c2)C1 (stereo unspecified) | 0.752 | –
COc1ccc(CNC(=O)CCC2CCCN(Cc3ccccc3)C2)c(OC)c1 (stereo unspecified) | – | 1.07
CC(C)n1cc(CNC2CC(C)(C)Cc3nc(N4CCOCC4)ncc32)cn1 (stereo unspecified) | 0.96 | –
Cc1ccc(F)cc1CNC(=O)C1CCN(c2nc(C)c3ccc(S(C)(=O)=O)cc3n2)CC1 | 0.893 | –
CCn1cnnc1CN(C)c1ccc(-c2nc(COc3ccccc3)no2)cn1 | – | 0.774
C1CCCN(c2nc3nonc3nc2NCCCN2CCOCC2)CC1 | – | 1.05
COCCN1C(=O)CC(CC(=O)N2CCCC(C(=O)c3ccccc3)C2)(c2ccccc2F)C1=O (stereo unspecified) | 0.782 | –
COc1cccc(CC2=NOC(C(=O)NCc3ccc(C(F)(F)F)cc3)C2)c1 (stereo unspecified) | 0.006 | –
Cc1ccc2c(c1)CN(CC(=O)N(C)Cc1nccn1C)CC(c1ccsc1)O2 (stereo unspecified) | 0.006 | –
Cc1ccn(CCC(=O)NCc2cccnc2Oc2ccccc2F)n1 | – | 1.11
CCOC(=O)N1CCC(NC(=O)C2CC23CCN(C(=O)c2ccccc2C(F)(F)F)CC3)CC1 (stereo unspecified) | 0.863 | –
Cc1ccccc1C(CC(=O)N(C)Cc1c(C)nn(C)c1C)c1ccccc1 (stereo unspecified) | 0.523 | –

Single values from above.
In bacterial growth OD600 (polymyxin B 0.75 µg/mL), COc1cccc(CC2=NOC(C(=O)NCc3ccc(C(F)(F)F)cc3)C2)c1 (stereo unspecified) is entered as 0.006
In bacterial growth OD600 (polymyxin B 1 µg/mL), Cc1ccsc1C(=O)N1CCCC(C(=O)c2cccc(OC(C)C)c2)C1 (stereo unspecified) is entered as 0.66
In bacterial growth OD600 (polymyxin B 0.75 µg/mL), O=C(Cc1ccccn1)N1CCC(C2CCN(c3ncccn3)CC2)C1 (stereo unspecified) is entered as 0.183

Further compounds.

SMILES | bacterial growth OD600 (polymyxin B 0.75 µg/mL) | bacterial growth OD600 (polymyxin B 1 µg/mL)
COc1ccc(N2C(=O)CN(C(=O)c3cccnc3SC)CC23CCCC3)cc1 | 0.768 | –
CCn1ccnc1CN1CCCC(CCC(=O)Nc2ccccc2F)C1 (stereo unspecified) | – | 0.849
Cc1ccc(-n2ncc3c2CCCC3NC(=O)C2CCN(C(=O)N(C)C)CC2)cc1C (stereo unspecified) | – | 1.16
O=C(Nc1ccc(-c2nc3ccccc3o2)cc1)C1CCCN1C(=O)C1CC1 (stereo unspecified) | 0.973 | –
COc1ccc(F)c(CC2(CCC(=O)N3CCCC(OCc4ccccc4)C3)CCC(=O)N2)c1 (stereo unspecified) | 0.844 | –
COc1ccc(CN2CCCC(N3CCN(c4ccccc4C)CC3)C2)cc1 (stereo unspecified) | – | 0.889
CCNC(=O)c1cn(C(C)CC)cc(C(=O)NCc2cc(-c3ccccc3)on2)c1=O (stereo unspecified) | 0.854 | –
CCN(CC)CCN(CC)C(=O)Cn1nnnc1CN1CCOCC1 | 0.964 | –
COc1cc(CC2(CCC(=O)NCc3cnn(Cc4ccccc4)c3)CCC(=O)N2)ccc1F (stereo unspecified) | 0.983 | –
O=C(NCc1cccc(F)c1F)C1CCC(=O)N(CCc2cccc(F)c2)C1 (stereo unspecified) | – | 0.817
COc1cccc(C(C)N(C)Cc2nc(-c3ccc(Cl)cc3)oc2C)c1 (stereo unspecified) | – | 0.351
CN1CCN(c2ncccc2CNC(=O)[C@@H]2C[C@H]2c2ccccc2)CC1 | 0.952 | –
Cc1ccccc1N1CCN(C2CCCN(Cc3cccc4nonc34)C2)CC1 (stereo unspecified) | – | 0.968
CC(=O)NCC(=O)N1CCCC(CCc2cccc(F)c2)C1 (stereo unspecified) | 0.996 | –
CCOC(=O)C1(Cc2ccc(Cl)cc2)CCN(C(=O)CCC2(C)CC2)CC1 | – | 0.836
